Results as given in US20250262263A1, “METHOD AND COMPOSITIONS FOR THE USE OF BOTANICAL EXTRACTS IN THE TREATMENT OF VIRAL INFECTIONS” (priority 2024, published 2025).
At least one compound was matched to its structure with a doubt left.

Tested on: VACV
Assay type: cell-based, vaccinia virus
Settings: 100 pfu VACV, 48 HPI

SMILES: C=C(C)[C@@H]1CC[C@]2(C(=O)O)CC[C@]3(C)[C@H](CC[C@@H]4[C@@]5(C)CC[C@H](O)C(C)(C)[C@@H]5CC[C@]43C)[C@@H]12 [betulinic acid]
- antiviral activity (VACV plaques): did not show suitable antiviral activity
